Results are given in words; binding and its absence hold for the method and conditions named. Binding seen in cells or lysates may run through a third protein. Some entries that bind do so weakly or less than the wild type. For some of these results: Tags and fused reporters may be left off the sequences shown. Blank lines part the entries; values can stand above or below the binder they belong to.
Experiments:
[1] = target: Cdc48p (S. cerevisiae) (UniProt P25694); test: co-IP; Supplementary Fig. 3e; who was precipitated and how Cdc48p was detected is not given
[2] = target: Ltn1p-HA (S. cerevisiae) (UniProt Q04781); test: co-IP; anti-HA magnetic beads; lysate of the cognate double mutant yeast strain co-expressing Vms1p-V5 (or VMS1 mutant) and a His6-HA2 tagged RQC component; IP buffer 20 mM Tris pH 7.4, 50 mM NaCl, 0.2% Triton X-100; 4 h incubation; immunoblot of HA and V5
[3] = target: T1, Rqc1p-HA (S. cerevisiae) (UniProt Q05468); test: as above
T1 sequence: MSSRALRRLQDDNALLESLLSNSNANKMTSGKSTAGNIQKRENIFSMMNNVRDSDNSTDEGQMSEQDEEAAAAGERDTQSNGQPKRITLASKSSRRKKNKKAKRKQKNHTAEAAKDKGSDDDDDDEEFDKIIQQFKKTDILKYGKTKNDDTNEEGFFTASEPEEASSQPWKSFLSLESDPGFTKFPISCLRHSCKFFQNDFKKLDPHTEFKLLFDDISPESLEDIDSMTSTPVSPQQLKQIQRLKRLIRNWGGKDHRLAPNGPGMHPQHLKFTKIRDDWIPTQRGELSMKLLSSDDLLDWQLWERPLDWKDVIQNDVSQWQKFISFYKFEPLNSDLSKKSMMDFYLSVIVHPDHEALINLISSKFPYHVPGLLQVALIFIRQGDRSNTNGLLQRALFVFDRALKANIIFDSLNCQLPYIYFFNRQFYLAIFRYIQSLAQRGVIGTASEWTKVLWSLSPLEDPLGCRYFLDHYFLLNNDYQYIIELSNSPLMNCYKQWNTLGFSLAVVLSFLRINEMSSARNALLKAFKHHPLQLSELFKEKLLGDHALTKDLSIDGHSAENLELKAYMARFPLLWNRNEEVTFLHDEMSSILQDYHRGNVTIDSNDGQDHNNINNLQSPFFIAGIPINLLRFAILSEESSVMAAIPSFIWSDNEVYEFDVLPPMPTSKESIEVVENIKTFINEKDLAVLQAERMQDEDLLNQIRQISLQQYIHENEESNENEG

Amino acid sequences for entries named in this document (tags omitted).
UniProt P25694: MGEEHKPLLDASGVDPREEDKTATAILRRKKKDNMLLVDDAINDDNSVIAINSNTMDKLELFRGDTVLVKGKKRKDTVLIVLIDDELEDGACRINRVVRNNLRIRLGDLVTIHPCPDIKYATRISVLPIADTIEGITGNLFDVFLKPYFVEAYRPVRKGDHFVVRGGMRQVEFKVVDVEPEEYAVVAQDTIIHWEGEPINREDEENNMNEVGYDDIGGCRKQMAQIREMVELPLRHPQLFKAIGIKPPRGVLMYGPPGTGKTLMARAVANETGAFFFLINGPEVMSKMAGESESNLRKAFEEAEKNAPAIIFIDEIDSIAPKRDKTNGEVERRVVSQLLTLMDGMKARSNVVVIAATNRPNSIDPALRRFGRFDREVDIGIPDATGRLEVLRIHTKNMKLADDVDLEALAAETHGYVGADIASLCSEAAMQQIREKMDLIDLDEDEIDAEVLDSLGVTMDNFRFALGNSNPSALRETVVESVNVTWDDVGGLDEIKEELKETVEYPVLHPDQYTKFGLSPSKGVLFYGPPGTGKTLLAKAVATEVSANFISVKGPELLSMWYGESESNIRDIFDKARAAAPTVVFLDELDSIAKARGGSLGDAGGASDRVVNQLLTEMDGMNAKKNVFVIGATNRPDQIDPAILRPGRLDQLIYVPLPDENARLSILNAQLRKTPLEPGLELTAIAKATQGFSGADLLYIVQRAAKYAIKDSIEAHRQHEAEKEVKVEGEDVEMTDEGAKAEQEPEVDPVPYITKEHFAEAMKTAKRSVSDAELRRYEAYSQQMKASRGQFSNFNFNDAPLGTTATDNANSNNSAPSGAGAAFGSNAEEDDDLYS
UniProt Q04781: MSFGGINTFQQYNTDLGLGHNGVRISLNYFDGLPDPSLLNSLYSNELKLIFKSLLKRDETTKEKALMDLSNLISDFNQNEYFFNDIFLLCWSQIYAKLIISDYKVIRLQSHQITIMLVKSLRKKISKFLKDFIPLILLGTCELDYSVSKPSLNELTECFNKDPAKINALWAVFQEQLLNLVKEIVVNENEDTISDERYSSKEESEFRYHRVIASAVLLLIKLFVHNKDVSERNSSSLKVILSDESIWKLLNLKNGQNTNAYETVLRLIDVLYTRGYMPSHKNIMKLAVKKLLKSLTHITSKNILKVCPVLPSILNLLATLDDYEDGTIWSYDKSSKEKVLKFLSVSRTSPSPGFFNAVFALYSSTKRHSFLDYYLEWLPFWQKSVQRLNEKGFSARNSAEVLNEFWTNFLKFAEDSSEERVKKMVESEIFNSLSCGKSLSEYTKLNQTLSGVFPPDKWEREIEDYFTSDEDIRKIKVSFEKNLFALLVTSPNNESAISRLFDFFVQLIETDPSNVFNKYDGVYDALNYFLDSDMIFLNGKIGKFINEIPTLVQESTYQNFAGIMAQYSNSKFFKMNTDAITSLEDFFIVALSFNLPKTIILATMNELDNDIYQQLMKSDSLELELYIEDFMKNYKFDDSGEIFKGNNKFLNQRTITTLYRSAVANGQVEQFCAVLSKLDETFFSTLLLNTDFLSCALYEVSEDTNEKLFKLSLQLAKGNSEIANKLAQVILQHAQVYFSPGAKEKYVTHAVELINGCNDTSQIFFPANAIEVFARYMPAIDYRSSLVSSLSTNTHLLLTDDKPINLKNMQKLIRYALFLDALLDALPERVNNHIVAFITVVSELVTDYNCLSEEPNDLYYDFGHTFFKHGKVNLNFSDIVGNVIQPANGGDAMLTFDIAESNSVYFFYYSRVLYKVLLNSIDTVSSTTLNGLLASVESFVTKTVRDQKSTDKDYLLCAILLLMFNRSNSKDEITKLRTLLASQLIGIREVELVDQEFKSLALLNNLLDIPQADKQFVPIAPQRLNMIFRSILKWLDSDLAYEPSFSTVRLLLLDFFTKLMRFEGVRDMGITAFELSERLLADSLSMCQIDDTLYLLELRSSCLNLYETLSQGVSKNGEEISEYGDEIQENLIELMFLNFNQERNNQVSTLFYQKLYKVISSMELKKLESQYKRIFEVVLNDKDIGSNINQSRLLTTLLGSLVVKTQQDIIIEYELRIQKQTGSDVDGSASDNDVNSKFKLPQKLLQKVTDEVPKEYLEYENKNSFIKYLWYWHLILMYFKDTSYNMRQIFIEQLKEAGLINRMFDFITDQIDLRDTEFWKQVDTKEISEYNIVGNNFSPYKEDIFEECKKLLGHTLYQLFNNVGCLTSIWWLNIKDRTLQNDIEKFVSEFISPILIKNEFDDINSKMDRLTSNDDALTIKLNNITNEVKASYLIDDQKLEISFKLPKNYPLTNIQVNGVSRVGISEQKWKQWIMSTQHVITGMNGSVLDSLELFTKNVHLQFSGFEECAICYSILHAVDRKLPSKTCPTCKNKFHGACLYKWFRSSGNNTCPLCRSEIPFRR
UniProt Q12532: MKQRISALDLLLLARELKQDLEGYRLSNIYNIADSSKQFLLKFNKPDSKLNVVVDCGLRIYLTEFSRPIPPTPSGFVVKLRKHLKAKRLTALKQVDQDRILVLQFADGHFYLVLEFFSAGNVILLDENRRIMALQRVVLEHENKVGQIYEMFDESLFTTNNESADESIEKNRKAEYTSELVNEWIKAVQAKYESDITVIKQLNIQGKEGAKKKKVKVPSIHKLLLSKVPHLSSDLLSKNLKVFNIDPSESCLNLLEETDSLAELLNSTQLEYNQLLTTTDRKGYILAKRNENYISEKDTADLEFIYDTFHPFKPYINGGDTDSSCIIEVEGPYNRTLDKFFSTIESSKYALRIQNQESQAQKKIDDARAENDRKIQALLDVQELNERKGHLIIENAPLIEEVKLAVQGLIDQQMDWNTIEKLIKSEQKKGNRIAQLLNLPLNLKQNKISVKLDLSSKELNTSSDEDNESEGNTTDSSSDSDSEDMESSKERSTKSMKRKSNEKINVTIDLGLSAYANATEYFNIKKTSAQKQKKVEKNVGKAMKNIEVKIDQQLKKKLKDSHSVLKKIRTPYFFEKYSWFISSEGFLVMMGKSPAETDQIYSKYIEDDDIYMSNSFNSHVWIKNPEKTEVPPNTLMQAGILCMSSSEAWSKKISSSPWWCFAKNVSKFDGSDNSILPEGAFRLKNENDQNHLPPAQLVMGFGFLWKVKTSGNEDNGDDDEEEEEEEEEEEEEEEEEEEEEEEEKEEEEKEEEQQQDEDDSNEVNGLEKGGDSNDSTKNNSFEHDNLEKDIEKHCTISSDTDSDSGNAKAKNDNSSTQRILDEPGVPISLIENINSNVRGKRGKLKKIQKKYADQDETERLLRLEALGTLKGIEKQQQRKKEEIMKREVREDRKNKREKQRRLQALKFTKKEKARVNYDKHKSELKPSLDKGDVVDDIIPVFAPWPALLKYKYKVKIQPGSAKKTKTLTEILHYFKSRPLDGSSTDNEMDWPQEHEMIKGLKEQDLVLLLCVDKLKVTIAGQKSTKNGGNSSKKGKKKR

[4] = target: Rqc2p-HA (S. cerevisiae) (UniProt Q12532); test: as above

- binding [1]: no binding
B1: Vms1p 1–417 truncation mutant (domain or fragment, UniProt Q04311 1-417)
chain: MNSQKASKMTGSLKKNDLYIFDLSEQLLNSLKLMSFDSTLREVEVEKTSDNDRNKESGDLQIARKKVTSNVMRCSVCQMSFDSRNEQKAHYQTDYHLMNVKRNLRGLDILSVEEFDALISKEHGIKSEDENSGGEQTSSDHEESEEASDRDPDLQTNNYMETIIENDLQKLGFQKDESDAISHINTQSPYIYFKSKYLQKNEVLAIYKSLFNKRSLSNPNEALTFWNSQENPMAISALFMVGGGHFAGAIVSHQRLNVKGNAHKKDETLIEQAVNFLEHKTFHRYTTRRKQGGSQSAMDNAKGKANSAGSALRRYNESALKTDIQGVLKDWEPYLSKCDNIFIRARNVSDKKIFTDNTVLNKGDERIKSFPFTTNRPTVLELKKAWCELSYLKILPKPEPLAVKETVQKLEVSNKKD

- binding [2]: binds weakly
- binding [3]: binds weakly
- binding [4]: binds
B2: Vms1p-V5 (protein, UniProt Q04311 1-632)
chain: MNSQKASKMTGSLKKNDLYIFDLSEQLLNSLKLMSFDSTLREVEVEKTSDNDRNKESGDLQIARKKVTSNVMRCSVCQMSFDSRNEQKAHYQTDYHLMNVKRNLRGLDILSVEEFDALISKEHGIKSEDENSGGEQTSSDHEESEEASDRDPDLQTNNYMETIIENDLQKLGFQKDESDAISHINTQSPYIYFKSKYLQKNEVLAIYKSLFNKRSLSNPNEALTFWNSQENPMAISALFMVGGGHFAGAIVSHQRLNVKGNAHKKDETLIEQAVNFLEHKTFHRYTTRRKQGGSQSAMDNAKGKANSAGSALRRYNESALKTDIQGVLKDWEPYLSKCDNIFIRARNVSDKKIFTDNTVLNKGDERIKSFPFTTNRPTVLELKKAWCELSYLKILPKPEPLAVKETVQKLEVSNKKDEFKEKQEPLLEEIQTEEIISLLKKGRAPLLISFLKKNKLDGNFRLKPESKYSLTPTMLHYASQQGMKQMALILLSNIKCDPTIKNRLGRTAWDLNRNDDVRHAFQIARYNLGESFTNWDETHIGQPLSREQVDEINEKKKAIENEKAEKLIKLELEAAKEKQRFAKDAERGPGKKLTNIPSIQQQNLNSLTDEQRRRLMREQRARAAEERMKKKY

Source: publication PMC5989216
